Data: article PMC5102403
Results are given in words; binding and its absence hold for the method and conditions named. In cells and extracts the contact can be indirect. Some binding calls cover weakened binding; strength is not graded here.

The chains behind the UniProt entries cited, without tags or fusion partners. Where a name states a change or a piece, a line headed by the entry shows the natural chain unless it says otherwise.
UniProt Q96GY3: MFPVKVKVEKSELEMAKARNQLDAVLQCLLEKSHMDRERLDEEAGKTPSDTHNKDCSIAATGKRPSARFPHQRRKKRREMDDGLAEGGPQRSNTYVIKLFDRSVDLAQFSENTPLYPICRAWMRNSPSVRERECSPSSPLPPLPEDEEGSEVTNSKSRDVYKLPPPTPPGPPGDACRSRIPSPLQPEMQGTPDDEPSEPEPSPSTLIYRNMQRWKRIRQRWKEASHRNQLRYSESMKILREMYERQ
UniProt P24860: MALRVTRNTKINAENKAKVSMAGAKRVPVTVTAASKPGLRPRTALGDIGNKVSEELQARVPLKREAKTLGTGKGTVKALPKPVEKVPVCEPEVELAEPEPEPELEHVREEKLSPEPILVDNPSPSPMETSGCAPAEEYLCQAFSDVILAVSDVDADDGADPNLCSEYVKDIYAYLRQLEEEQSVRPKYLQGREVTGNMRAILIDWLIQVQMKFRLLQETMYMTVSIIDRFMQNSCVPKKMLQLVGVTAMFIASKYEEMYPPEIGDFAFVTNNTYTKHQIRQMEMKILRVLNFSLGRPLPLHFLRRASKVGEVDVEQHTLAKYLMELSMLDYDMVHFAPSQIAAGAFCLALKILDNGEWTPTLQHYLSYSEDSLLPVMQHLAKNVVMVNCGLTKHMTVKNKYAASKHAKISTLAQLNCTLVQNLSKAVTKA
UniProt P51943: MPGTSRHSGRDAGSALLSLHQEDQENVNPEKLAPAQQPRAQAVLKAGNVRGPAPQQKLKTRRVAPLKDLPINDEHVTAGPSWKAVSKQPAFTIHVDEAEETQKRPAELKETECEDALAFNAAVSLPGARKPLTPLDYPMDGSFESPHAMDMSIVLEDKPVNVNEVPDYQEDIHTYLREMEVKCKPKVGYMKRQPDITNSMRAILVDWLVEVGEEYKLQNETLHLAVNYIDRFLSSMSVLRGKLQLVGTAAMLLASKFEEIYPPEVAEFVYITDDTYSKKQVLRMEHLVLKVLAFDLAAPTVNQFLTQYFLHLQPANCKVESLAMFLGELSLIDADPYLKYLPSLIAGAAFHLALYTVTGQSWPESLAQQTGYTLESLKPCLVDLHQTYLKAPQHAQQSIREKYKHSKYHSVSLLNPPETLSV
UniProt P10244: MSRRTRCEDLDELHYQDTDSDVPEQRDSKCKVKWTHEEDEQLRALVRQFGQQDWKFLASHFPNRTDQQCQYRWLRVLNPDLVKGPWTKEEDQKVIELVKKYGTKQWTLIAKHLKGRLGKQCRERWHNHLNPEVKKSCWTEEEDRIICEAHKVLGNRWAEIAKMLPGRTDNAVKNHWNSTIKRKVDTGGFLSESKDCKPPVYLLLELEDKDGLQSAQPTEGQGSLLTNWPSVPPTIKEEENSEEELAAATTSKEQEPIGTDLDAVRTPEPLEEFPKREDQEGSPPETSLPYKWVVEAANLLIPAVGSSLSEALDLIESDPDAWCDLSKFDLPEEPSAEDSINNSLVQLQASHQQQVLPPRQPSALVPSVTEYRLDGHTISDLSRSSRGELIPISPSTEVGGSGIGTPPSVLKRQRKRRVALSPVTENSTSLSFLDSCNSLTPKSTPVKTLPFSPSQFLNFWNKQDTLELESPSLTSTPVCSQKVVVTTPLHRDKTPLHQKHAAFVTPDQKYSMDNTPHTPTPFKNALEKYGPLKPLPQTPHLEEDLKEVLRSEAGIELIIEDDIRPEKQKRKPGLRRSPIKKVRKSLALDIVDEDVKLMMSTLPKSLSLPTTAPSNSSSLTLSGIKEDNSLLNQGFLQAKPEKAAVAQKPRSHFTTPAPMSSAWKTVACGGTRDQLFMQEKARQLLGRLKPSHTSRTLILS
UniProt P11440: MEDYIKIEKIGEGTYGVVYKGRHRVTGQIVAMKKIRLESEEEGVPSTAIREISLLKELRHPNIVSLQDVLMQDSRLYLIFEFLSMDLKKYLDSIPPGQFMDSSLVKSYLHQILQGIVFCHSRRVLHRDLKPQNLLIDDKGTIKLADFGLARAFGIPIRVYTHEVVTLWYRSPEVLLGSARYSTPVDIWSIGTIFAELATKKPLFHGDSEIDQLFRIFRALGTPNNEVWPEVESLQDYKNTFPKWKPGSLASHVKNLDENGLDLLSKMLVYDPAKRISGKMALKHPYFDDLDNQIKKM
UniProt Q8CGW9: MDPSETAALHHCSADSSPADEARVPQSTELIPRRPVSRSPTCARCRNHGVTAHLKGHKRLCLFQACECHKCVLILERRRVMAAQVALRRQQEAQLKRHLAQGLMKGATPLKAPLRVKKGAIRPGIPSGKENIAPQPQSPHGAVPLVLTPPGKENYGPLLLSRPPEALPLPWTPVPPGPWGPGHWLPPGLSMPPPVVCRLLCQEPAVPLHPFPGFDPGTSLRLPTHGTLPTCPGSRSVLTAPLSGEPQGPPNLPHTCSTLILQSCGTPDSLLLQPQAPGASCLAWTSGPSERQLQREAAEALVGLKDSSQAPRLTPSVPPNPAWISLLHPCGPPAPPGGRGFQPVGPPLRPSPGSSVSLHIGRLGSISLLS
UniProt Q08999: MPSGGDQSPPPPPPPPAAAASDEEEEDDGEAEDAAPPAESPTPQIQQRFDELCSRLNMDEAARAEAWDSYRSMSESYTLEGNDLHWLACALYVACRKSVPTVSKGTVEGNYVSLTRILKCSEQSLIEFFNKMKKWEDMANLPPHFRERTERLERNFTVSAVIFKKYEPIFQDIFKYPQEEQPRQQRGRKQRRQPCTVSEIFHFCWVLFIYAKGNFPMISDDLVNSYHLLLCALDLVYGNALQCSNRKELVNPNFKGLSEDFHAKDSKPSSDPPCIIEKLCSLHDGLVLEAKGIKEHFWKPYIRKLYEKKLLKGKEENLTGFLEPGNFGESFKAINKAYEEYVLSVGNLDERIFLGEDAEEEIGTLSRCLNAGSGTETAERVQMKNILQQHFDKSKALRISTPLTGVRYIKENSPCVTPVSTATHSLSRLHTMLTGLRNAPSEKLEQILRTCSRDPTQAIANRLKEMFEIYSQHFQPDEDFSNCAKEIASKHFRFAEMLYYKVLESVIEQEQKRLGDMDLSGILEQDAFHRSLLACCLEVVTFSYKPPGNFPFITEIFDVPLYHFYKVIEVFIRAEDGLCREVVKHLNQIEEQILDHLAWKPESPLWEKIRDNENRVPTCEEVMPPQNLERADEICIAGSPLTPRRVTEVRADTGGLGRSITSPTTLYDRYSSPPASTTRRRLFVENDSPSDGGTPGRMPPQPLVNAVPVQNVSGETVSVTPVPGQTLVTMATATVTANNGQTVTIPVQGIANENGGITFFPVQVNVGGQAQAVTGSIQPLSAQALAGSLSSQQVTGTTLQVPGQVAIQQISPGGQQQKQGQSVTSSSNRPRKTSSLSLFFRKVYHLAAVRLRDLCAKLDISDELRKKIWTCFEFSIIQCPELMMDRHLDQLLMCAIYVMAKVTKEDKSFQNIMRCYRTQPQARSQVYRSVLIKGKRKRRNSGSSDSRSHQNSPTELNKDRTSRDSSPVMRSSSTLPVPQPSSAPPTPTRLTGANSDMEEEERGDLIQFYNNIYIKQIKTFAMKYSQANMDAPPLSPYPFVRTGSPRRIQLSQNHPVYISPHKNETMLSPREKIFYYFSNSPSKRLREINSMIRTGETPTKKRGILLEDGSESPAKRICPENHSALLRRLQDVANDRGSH

Columns and labels:
[1] = target: Lin37, human (human (endogenous in T98G)) (UniProt Q96GY3); test: co-IP; T98G cells serum starved for 72 hrs, stimulated with 20% FBS with 0.2% DMSO, harvested at time-points; anti-Lin37 immunoprecipitates immunoblotted
[2] = target: N-terminally Flag- and HA-tagged cyclin E1 (cyclin E1^Ntag knock-in allele) (mouse) (UniProt Q61457); test: co-IP; anti-Flag immunoprecipitation from spleens and thymuses of Cdk2+/+/cyclin E1 Ntag/Ntag (KI) and Cdk2-/-/cyclin E1 Ntag/Ntag mice, wild-type mice as control, immunoblot
[3] = target: cyclin B1, mouse (mouse (endogenous in spleen)) (UniProt P24860); test: co-IP; cyclins D1, A2 or B1 immunoprecipitated from lysates of wild-type or Cdk2-/- spleens, immunoblot
[4] = target: cyclin A2, mouse (mouse (endogenous in spleen)) (UniProt P51943); test: as above
[5] = target: cyclin E1 (endogenous wild-type, mouse) (mouse (endogenous in mouse organs and MEFs)) (UniProt Q61457); test: co-IP; Cdk2 or Mybl1 immunoprecipitated from lysates of mouse testes, immunoblot
[6] = target: Lin37, human (human (endogenous in T98G)) (UniProt Q96GY3); test: co-IP; T98G cells transfected with HA-p130 WT or PM, with or without HA-Cdk2 and Myc-cyclin E1, lysed 24 hrs after transfection; anti-Lin37 immunoprecipitation (IgG control), immunoblot
[7] = target: Lin37, human (human (endogenous in T98G)) (UniProt Q96GY3); test: co-IP; T98G cells serum starved for 72 hrs, stimulated with 20% FBS with 20 μM CVT-313, harvested at time-points; anti-Lin37 immunoprecipitates immunoblotted

B-Myb, human (from UniProt P10244 1-700)
binding [1]: binds

Cdk1, mouse (from UniProt P11440 1-297) (enzyme)
binding [2]: binds
binding [3]: binds
binding [4]: binds

Cdk5, mouse (from UniProt P49615 1-292) (enzyme)
binding [2]: binds

Dmrtc2, mouse (endogenous) (from UniProt Q8CGW9 1-370)
binding [5]: binds

HA-tagged wild-type p130 (from UniProt Q08999 1-1139)
binding [6]: binds

p130, human (from UniProt Q08999 1-1139)
binding [1]: binds
binding [7]: binds
